Assay results taken from the supplement of paper PMC3334620.
Whole data set: some 33,000 sequences, median “E-score (-0.5 to 0.5)” near -8e-05, cut for the highest 2% near 0.23. The list shows a part of the results.

Molecular target: T1, Nrg2 (UniProt P38082)
T1 sequence: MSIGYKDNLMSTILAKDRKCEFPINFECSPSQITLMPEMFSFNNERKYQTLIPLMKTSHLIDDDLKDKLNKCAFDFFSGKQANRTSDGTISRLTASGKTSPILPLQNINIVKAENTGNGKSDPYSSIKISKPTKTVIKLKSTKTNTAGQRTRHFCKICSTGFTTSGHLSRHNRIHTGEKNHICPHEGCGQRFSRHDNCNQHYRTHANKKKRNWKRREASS
Assay: PBM E-score (8-mer binding enrichment) (E-score (-0.5 to 0.5)); higher = stronger / more preferred TF binding
Settings: protein concentration: 100 nM; construct: GST-full length
In short: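 Universal all-10-mer Agilent arrays, double-stranded by primer extension on fresh or once-stripped slides, were probed with about 100-200 nM GST-tagged yeast transcription factors made by PURExpress. Fluorescent anti-GST detected bound protein, and masliner normalised the scans. E-scores from the Universal PBM Analysis Suite were given to each ungapped eight-base word pooled with its reverse complement.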

Sequence | PBM E-score
CATATCCA | -0.0584
AACAGGCT | -0.0785
CACAAGAC | -0.244
CTGTCCGA | 0.0142
ATGGATCA | 0.0779
CCTGTGGC | -0.00031
AAGCCTGG | -0.195
AGTTTTAA | 0.172
AGGCTACG | -0.301
GCGCGAAA | 0.145
ACCGAACG | 0.0212
GCTCGGAA | -0.0374
CCTAAACG | -0.165
GCTCCCTA | -0.241
GTAAAAAC | 0.111
AGCTGTGG | 0.00631
CGCTGTTC | -0.232
CTGTTTGA | 0.0249
GACTTCGC | 0.167
AGTCCCTG | 0.294
CCCTAGAC | 0.00889
AATGTAGG | -0.224
CTAATCCA | -0.00436
CAGAACCG | 0.093
GAACTATC | 0.0513

Sequence | PBM E-score
TAGCCCAA | 0.0612
GTGCACAC | -0.173
CAACAAAC | 0.0713
ACACTCTG | -0.0131
ATAGCGCG | 0.119
CCGCCACC | -0.131
ACTCTGCG | 0.132
GCTTCTCC | -0.2
TTCGCCAA | -0.18
CTGGTACC | -0.119
ATGCGGAC | -0.169
CGTCAATA | -0.0899
CATCGGCG | -0.0373
ACAGTGAC | 0.0392
GGTACCAC | -0.151
AGACTCGA | -0.139
ATTTGGCG | -0.162
ATAGTACC | 0.0238
CTCGGCTA | 0.0645
CTCTGGAC | 0.0875
GCATAAGA | 0.0418
AATACCAC | 0.049
ATTGCCAG | 0.112
AAGTCAGC | 0.0916
AGCACTGC | -0.0874

Exported as tab-separated lines: part of the list above.
Sequence	PBM E-score
GTAAAAAC	0.111
AGCTGTGG	0.00631
CGCTGTTC	-0.232
CTGTTTGA	0.0249
GACTTCGC	0.167
AGTCCCTG	0.294
CCCTAGAC	0.00889
AATGTAGG	-0.224
CTAATCCA	-0.00436
CAGAACCG	0.093
GAACTATC	0.0513
TAGCCCAA	0.0612
GTGCACAC	-0.173
CAACAAAC	0.0713
ACACTCTG	-0.0131
ATAGCGCG	0.119
CCGCCACC	-0.131
ACTCTGCG	0.132
GCTTCTCC	-0.2
TTCGCCAA	-0.18
CTGGTACC	-0.119
ATGCGGAC	-0.169
CGTCAATA	-0.0899
CATCGGCG	-0.0373
ACAGTGAC	0.0392
GGTACCAC	-0.151
AGACTCGA	-0.139
ATTTGGCG	-0.162
ATAGTACC	0.0238
CTCGGCTA	0.0645
CTCTGGAC	0.0875
GCATAAGA	0.0418
AATACCAC	0.049
ATTGCCAG	0.112

Rewritten field by field: entries from further up.
ACAGTGAC
  PBM E-score: 0.0392
GGTACCAC
  PBM E-score: -0.151
AGACTCGA
  PBM E-score: -0.139

(further entries)

Sequence | PBM E-score
AAATTTTG | -0.149
AATTTCGG | -0.00627
ACTGTCCT | 0.00021
GTTCAGAA | 0.0161
AATTACCG | -0.0326
AACATTCG | -0.0394
ACAGACCC | -0.00923
TACCTGAA | 0.0117
AACAAGAA | 0.091
AGTGGATG | 0.0975
AAAGCCCG | -0.147
GTATTACA | 0.0254
CTGCGCGC | 0.306
AACTATCA | 0.0359
CGGTGCCA | -0.279
ACGGCCTA | 0.0182
AAAGGTGG | -0.00761
TCCGCGCA | 0.0506
ACTCAGAT | 0.109
ACGATTAA | -0.0411
ACCTGAGC | 0.0385
AGATGGCA | 0.0923
TCTATTCA | 0.0842
AGCGGTCA | -0.00422
CATTCGGC | -0.0555

Sequence | PBM E-score
GGCTGACA | -0.00063
CGTACATA | 0.0267
TACTTCTA | -0.0235
AATACAGA | 0.0334
ACGAGAGG | -0.0191
AAGCCGAG | 0.111
ACCCGACT | -0.00436
GCGAATCC | -0.0352
GACGCGAC | -0.121
GTTTTGTA | 0.131
CTCTTGAC | -0.101
CTCCCTTC | -0.245
AACGGGTC | 0.0316
AGCAAGAT | 0.048
AGCGCCCT | 0.036
AAGAGGCC | -0.148
GTTCGTGA | -0.203
AGTACGTA | 0.0307
CAAAGTGG | -0.105
GACCGACC | 0.0397
GTGACCGA | -0.158
GGTAGACC | -0.00427
ACGAAGCG | -0.0952
CTTGCGCC | -0.0573
CAGGTCCA | 0.0188

Sequence | PBM E-score
CCGACTAC | -0.15
ATCGACGA | 0.0881
CACCACTG | -0.0331
CTAGTGAA | -0.0581
ATCCCCAC | 0.247
ACCCAAAC | 0.145
ATGTCTTC | -0.23
CCAGGGAC | 0.366
GCTGATGA | 0.0708
AGCTGCGA | 0.0776
GCCATTCA | 0.155
ATTAAGGA | 0.069
ATTCTTTG | 0.00386
CTCTAATC | -0.214
CACGAGTC | -0.174
GACCGGAC | -0.168
CAGCGGAG | 0.0363
ACCTTCGC | -0.0876
CAACAGCA | 0.0942
AATCATAG | 0.235
ATATTGAA | -0.00511
CAAACGAG | 0.0526
CTTACCCC | -0.225
ACTTGTTG | -0.17
CTCAGAAA | 0.101

Sequence | PBM E-score
AAGAGACG | -0.0193
AGTACGCA | -0.179
CGGCTCTA | -0.0697
CAGACTAA | -0.103
AAGGAGTG | 0.0233
ATGTACCG | 0.0159
ACCAATAT | 0.213
ACCTCGCA | 0.00775
AACAGCAA | 0.135
CGCCAAGC | -0.148
ACACACGC | 0.0319
AACCGTGA | -0.142
GAGACCTC | -0.0945
CACGGTGA | 0.0843
CTCGGCGC | 0.0845
ACGCAATG | -0.0734
CGGCCATA | -0.123
ATAGCACC | -0.162
CGCCATAG | 0.0758
CAGAGTCG | 0.0169
CAGCATAG | -0.0656
ATGTAAAG | 0.0456
AGGTCTTA | -0.131
CGTCGGCC | 0.0775
ATGACAAG | 0.142

Sequence | PBM E-score
GACTTGGC | -0.202
GAGCCTTA | -0.167
GTACGTAC | -0.159
GCAAAACA | 0.136
GTCATTCA | 0.102
AATACTAT | 0.0268
CCCTCGAC | 0.0444
ACCCGTAA | 0.0728
CGCGGGGA | 0.165
AAGATATA | 0.114
ATCTATCA | -0.036
CCTGTGTA | 0.111
CTGCAACA | 0.0107
AGAGCAAA | 0.0248
CCAAGAGG | -0.00579
AGGGTGTC | 0.151
CAGGAGAG | -0.104
AGAGATAC | 0.186
AAGGAGGC | -0.154
ATAGAATA | 0.156
CAAGACCA | -0.177
CCCCCTCG | -0.32
